In test [1] the target is VACV H5 protein (vaccinia virus). Kind of test: lysate ELISA.
Test [2] shares this target. In words: antigen ELISA/array/BLI. A general note: In an ELISA, binding on a coated surface is turned into a signal by an enzyme label.
For test [3], the target named is VACV A25 protein (vaccinia virus). Kind of test: lysate ELISA.
The target is the same in test [4]. In words: antigen ELISA/array/BLI.

No constants are given. Whether binding was seen depends on the method and setting. Binding can be weak; no strength is given.

B1: VACV-308 (antibody, V domains shown)
VH: QVQLVQSGAEVKKPGSSVKVSCKGSGDSFRSYAISWVRQAPGQGLEWMGGIIPRFGTTNYAQKFQDRVTITADKSTTTAYMELRSLKCEDTGVYYCARPQSAYDFGPFDHWGQGTLVTVSS
VL: SYELTQPPSLSVAPGKTARITCGGDNIGSKGVHWYQQKPGQAPVVVISYDSDRPSGIPERFSGSNSGDTATLTISRVEAGDEADYYCHVWHTTTDHYVFGTGTKVTVL
Turning to B1, the binding entry in test [1] and in test [2] was “binds” throughout.

B2: VACV-309 (antibody, V domains shown)
VH: EVQLLESGGGLVQPGESLKLSCAASGFTFSSYAMNWVRQAPGKGLEWVSGISGSGGSTYYADSVKGRFTVSRDNSKNTLYLQMNSLRAEDTAVYYCAKDNNYYYYGMDVWGQGTTVTVSS
VL: AIQMTQSPSSLSASVGDRVTITCRASQGIRNDLGWYQQKPGKAPKLLIYAASSLQSGVPSRFSGSGSGTDFTLTISSLQPEDFATYYCLQDYNYPRMFGQGTKVDIK
With B2, the binding result in test [3] and in test [4] was “binds” each time.

The record behind these values is US11667697.
